This passage reports binding results from publication PMC9052155.

The chains behind the UniProt entries cited, without tags or fusion partners.
UniProt Q00987: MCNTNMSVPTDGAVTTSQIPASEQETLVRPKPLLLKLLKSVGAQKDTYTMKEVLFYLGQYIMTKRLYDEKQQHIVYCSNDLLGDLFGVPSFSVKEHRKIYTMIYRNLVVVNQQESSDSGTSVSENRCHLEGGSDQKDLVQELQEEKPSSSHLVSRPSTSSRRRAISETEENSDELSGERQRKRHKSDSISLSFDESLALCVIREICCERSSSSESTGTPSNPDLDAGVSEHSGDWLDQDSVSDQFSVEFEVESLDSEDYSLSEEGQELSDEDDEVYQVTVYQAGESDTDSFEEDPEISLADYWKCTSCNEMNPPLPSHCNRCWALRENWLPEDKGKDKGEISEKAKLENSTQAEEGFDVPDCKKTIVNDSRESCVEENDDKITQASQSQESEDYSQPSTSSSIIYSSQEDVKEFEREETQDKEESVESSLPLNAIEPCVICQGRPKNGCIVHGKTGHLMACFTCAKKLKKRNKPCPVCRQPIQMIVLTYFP

No constants are given. Whether binding was seen depends on the method and setting. Binding seen in cells or lysates may run through a third protein. Some results given as binding are weak or reduced against the parent protein; the word gives no strength.

For assay [1], the target named is HA-tagged β-arr2F116A (rat) (UniProt P29067). The experiment in a line: co-IP; co-IP of β-arr2 WT or β-arr2F116A with USP20, MDM2 and c-RAF (Figure S1); cells, constructs and direction not shown.
For assay [2], the target named is HA-tagged β-arrestin2 (WT) (rat) (UniProt P29067). The assay is described as above.
Assay [3] has the same target. The experiment in a line: co-IP; HA-tagged β-arr2 constructs precipitated with anti-HA agarose from HEK-293 lysates (50 mM HEPES pH 7.5, 2 mM EDTA, 250 mM NaCl, 10% glycerol, 0.5% NP-40; 4 °C overnight); partners detected by immunoblot; cells unstimulated or stimulated with isoproterenol (Figures 1C, 1F, 5C). A general note: A western blot detects proteins with antibodies after separation by electrophoresis.

As for “USP20 (as used in Figure S1) (from UniProt Q9Y2K6 1-914) (enzyme)”, the binding result in assay [1] and in assay [2] was “binds” in each case.

As for “c-RAF (from UniProt P04049 1-648) (enzyme)”, in assay [1], the binding entry is reported as “binds”.

“mouse double minute 2 (from UniProt Q00987 1-491) (enzyme)”: the binding entry in assay [1], in assay [2] and in assay [3] was “binds” each time.

For the substance “ubiquitin-specific peptidase 20 (endogenous) (from UniProt Q9Y2K6 1-914) (enzyme)”, the binding entry in assay [3] is on record as “binds”.
